The source of these data is publication PMC6831727.

The assay concerns the target SmGRAS2 (Salvia miltiorrhiza). Nature of the assay: two-hybrid; SmGRAS1-AD (pGADT7) and SmGRAS2-BD (pGBKT7) co-transformed into strain Y2H; selection on SD/-Leu/-Trp, then growth on SD/-Ade/-His/-Leu/-Trp with AbA and alpha-X-gal; 3-day incubation at 29°C.

No constants are given. Whether binding was seen depends on the method and setting. Binding can be weak; no strength is given.

Consider SmGRAS1 (from UniProt A0A291I303), for which the binding entry is listed as “binds”.
